Reference: the supplement of paper PMC11732987, “Enantioselective OTUD7B fragment discovery through chemoproteomics screening and high-throughput optimisation” (Communications Chemistry, 2025)
The other results are listed elsewhere or left out. The data scatter; read single values as rough.

By UniProt entry, the sequences of proteins in these tests, tags left out. Where a name states a change or a piece, a line headed by the entry shows the natural chain unless it says otherwise. Residues count along the entry.
UniProt O95613: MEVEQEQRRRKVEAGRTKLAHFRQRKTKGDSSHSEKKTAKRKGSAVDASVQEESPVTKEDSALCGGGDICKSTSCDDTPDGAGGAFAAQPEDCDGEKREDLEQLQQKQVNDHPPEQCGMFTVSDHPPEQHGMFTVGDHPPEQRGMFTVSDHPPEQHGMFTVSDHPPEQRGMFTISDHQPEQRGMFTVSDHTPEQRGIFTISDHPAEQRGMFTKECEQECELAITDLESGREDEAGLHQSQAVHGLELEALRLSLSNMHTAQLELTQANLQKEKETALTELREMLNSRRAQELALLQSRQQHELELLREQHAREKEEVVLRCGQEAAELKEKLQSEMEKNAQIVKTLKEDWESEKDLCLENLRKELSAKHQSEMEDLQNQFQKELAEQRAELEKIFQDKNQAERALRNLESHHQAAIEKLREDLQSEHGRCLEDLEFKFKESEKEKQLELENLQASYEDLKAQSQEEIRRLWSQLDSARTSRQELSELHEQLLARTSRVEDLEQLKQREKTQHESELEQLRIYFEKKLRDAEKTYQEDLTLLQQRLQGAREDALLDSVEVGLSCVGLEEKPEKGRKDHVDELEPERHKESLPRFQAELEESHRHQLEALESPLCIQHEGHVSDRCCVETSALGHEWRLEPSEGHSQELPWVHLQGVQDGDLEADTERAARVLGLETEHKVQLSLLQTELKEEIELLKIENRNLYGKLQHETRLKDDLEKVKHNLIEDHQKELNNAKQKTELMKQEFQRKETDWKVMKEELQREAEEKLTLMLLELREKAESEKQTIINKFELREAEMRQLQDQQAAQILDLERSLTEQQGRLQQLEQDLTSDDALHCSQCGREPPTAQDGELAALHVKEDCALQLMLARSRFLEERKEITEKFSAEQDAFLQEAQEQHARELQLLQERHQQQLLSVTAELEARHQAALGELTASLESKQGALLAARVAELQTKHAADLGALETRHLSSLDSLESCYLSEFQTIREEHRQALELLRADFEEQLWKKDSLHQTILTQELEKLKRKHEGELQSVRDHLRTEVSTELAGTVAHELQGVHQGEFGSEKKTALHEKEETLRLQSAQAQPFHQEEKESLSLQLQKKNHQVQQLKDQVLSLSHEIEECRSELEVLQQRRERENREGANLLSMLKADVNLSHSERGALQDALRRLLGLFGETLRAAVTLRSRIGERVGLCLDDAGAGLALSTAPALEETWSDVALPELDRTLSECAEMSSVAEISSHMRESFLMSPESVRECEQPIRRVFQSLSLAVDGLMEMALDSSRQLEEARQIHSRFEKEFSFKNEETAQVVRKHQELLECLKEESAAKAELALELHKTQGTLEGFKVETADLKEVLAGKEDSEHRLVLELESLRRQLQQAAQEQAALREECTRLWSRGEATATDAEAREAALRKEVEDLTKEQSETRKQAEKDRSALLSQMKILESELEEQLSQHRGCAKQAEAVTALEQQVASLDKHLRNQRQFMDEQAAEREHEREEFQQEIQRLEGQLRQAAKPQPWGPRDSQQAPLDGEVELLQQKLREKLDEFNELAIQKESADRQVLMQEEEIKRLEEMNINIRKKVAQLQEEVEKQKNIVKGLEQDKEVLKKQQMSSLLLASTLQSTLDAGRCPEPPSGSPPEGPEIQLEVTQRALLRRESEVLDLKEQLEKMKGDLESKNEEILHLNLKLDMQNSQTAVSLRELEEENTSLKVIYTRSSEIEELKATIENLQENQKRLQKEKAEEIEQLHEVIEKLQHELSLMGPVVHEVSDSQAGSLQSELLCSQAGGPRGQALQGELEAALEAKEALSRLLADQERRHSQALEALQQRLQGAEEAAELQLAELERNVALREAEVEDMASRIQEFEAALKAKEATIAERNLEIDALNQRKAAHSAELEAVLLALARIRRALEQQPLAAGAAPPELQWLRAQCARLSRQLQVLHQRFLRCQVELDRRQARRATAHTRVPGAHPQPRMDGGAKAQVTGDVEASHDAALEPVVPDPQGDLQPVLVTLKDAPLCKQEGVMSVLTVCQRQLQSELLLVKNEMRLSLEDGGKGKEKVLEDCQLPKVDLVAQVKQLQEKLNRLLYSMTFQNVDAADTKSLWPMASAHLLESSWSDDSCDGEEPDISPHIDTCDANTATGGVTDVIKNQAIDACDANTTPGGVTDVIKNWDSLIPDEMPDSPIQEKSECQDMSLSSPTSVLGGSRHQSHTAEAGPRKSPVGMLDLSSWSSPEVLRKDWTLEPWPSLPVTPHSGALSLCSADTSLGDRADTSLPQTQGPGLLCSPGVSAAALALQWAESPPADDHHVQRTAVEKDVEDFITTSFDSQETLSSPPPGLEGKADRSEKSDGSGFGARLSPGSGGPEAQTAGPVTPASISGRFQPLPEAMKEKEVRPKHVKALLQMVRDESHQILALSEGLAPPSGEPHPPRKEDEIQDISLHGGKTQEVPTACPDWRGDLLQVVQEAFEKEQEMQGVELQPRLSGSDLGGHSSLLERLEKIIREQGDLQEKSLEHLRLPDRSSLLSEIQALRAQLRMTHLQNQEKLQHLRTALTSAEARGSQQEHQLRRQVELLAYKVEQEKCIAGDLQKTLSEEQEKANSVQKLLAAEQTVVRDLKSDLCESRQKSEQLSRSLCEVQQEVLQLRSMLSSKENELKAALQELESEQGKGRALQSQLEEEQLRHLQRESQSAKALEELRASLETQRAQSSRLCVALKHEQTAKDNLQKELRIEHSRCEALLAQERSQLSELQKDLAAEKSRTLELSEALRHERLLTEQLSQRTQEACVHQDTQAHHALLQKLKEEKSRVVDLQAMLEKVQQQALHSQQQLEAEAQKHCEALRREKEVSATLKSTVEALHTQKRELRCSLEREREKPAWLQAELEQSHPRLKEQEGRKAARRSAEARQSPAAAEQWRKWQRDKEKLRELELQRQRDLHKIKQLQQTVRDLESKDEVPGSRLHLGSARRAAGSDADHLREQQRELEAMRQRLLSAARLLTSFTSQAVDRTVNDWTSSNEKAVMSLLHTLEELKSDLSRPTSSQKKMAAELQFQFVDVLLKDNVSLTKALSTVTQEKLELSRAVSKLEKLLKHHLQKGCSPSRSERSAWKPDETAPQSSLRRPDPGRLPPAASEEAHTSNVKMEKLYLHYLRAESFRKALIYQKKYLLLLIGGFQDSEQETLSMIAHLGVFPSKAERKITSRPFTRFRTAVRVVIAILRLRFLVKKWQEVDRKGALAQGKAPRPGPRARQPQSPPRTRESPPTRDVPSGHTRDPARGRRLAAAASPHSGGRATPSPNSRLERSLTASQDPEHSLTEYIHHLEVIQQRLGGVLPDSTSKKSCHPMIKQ
UniProt Q3KNV8: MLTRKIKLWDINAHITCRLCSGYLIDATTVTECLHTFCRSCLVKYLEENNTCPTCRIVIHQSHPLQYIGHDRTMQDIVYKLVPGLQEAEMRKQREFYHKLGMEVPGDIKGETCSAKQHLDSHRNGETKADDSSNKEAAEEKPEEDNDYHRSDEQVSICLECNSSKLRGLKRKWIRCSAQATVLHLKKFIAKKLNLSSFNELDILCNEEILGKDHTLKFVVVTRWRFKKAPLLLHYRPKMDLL
UniProt Q6P996, 438-458: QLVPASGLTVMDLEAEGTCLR
UniProt Q58A45: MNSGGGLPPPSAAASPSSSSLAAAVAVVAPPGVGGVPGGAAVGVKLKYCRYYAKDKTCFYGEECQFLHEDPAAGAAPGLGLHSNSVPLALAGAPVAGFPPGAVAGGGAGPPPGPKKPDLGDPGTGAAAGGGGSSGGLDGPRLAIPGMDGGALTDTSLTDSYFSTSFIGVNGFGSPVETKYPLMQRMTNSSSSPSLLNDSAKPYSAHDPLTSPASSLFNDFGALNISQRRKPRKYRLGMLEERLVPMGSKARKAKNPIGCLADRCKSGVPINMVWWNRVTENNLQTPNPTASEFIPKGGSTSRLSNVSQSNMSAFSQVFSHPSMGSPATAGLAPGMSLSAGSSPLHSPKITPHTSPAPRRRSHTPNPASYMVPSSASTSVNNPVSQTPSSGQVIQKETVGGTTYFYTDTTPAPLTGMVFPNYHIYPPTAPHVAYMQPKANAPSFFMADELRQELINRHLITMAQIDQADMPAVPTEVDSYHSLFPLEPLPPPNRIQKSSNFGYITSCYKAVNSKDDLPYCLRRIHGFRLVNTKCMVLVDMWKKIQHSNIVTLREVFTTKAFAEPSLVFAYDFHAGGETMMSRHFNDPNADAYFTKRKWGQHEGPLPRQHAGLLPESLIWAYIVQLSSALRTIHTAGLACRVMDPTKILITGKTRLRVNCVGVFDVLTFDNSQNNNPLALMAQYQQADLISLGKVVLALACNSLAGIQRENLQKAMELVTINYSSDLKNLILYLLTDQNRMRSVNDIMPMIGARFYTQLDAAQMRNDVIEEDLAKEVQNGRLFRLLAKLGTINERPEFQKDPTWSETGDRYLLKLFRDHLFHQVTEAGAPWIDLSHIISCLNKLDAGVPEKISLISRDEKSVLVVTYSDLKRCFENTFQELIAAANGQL
UniProt P22061: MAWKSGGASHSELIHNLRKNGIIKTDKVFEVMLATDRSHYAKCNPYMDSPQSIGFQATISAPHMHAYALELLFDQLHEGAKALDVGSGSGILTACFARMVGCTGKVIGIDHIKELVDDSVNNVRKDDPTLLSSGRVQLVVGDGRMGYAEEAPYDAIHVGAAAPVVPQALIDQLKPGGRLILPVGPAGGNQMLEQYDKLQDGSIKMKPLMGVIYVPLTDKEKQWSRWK
UniProt Q14690: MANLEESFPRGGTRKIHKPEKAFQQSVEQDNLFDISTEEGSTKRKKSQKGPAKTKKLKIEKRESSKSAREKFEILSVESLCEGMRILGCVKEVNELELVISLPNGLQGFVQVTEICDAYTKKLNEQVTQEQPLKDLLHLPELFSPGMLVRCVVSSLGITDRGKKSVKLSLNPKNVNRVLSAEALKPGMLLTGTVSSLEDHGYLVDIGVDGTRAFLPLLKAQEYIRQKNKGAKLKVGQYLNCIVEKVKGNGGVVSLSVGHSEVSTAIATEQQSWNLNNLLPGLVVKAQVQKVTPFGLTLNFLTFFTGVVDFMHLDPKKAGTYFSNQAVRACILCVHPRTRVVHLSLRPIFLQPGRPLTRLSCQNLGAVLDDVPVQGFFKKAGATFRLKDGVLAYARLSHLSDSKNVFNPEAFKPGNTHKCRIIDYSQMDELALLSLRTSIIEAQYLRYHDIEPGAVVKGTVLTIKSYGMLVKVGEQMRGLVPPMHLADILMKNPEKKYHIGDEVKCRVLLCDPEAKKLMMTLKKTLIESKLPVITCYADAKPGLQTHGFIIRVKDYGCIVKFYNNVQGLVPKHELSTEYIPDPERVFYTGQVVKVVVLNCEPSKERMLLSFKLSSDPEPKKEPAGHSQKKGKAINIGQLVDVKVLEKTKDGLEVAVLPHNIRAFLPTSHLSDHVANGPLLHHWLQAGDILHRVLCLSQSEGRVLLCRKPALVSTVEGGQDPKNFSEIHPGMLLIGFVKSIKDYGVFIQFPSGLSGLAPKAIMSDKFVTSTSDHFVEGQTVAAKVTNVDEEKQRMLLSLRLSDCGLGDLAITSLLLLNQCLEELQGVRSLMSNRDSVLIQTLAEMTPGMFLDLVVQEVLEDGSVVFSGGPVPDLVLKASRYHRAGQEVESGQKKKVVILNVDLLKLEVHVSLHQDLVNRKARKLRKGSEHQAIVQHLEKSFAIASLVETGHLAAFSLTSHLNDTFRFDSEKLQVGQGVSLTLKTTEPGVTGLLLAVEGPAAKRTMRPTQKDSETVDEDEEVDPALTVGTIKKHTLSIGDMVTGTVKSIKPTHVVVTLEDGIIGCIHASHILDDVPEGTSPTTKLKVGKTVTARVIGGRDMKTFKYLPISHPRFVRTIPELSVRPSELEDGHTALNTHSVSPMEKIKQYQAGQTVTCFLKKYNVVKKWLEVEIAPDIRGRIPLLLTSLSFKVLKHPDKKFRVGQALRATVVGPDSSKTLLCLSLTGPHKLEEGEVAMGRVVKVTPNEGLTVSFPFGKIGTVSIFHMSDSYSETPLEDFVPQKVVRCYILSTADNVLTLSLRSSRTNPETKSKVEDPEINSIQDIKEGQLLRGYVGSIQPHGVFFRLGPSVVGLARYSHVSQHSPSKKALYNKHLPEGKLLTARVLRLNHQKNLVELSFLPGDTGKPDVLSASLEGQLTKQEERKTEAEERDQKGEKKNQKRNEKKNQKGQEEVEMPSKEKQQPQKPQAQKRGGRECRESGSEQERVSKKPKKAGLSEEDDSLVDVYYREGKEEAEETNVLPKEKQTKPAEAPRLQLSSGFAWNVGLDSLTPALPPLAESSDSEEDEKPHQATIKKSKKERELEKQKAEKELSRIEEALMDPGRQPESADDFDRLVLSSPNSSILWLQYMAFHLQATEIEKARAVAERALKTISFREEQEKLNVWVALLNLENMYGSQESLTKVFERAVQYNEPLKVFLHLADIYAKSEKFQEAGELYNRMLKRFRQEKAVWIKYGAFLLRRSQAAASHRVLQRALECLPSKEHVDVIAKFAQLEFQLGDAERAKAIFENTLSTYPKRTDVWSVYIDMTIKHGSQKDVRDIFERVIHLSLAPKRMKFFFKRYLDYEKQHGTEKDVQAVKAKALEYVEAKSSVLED

What was measured:
[1] = compound: ClCC(=O)N[C@@H]1CCCc2ccccc12; assay: log2 mean competition ratio of IA-DTB cysteine labelling (DMSO/compound) (log2 ratio); higher = stronger cysteine engagement by compound; details: treatment time: 4 h, cell line lysate: HEK293T
Procedure: (§1)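 IA-DTB competitive cysteine chemoproteomics in HEK293T RIPA lysate. Lysates were treated with compound 29 or 30 at 50 or 200 µM for 4 h, then IA-DTB (500 µM, 1 h), trypsin-digested, NeutrAvidin-enriched and analysed by diaPASEF. Competition ratio = intensity DMSO / intensity compound (n=4 treated, n=64 DMSO); binding: mean log2 CR ≥ 1 and p ≤ 0.05 plus QC filters. Target is the cysteine site.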

[2] = compound: ClCC(=O)N[C@H]1CCCc2ccccc12; assay: as above; details: treatment time: 4 h, cell line lysate: HEK293T
Procedure: as §1

Target | log2 mean competition ratio ([1]; 50 µM) | log2 mean competition ratio ([1]; 200 µM) | log2 mean competition ratio ([2]; 50 µM) | log2 mean competition ratio ([2]; 200 µM)
PARG C711 (UniProt Q86W56) | 0.133 | -0.352 | 0.0546 | -0.48
PHACTR4 C328 (UniProt Q8IZ21) | 0.0349 | -0.28 | 0.439 | 0.147
PCNT C2446 (UniProt O95613) | -0.0342 | -0.0914 | 0.148 | 0.0665
PAIP1 C358 (UniProt Q9H074) | -0.0385 | -0.159 | -0.409 | -0.0762
OTUD5 C519 (UniProt Q96G74) | 0.485 | 0.0837 | 0.514 | 0.287
OXR1 C410 (UniProt Q8N573) | -0.0787 | -0.19 | -0.202 | -0.311
PARK7 C46 (UniProt Q99497) | 0.34 | -0.492 | -0.0485 | -2.04
PALLD C964 (UniProt Q8WX93) | -0.121 | 0.0558 | -0.132 | 0.133
PGP C272 (UniProt A6NDG6) | 0.461 | -0.511 | -0.225 | -0.315
PCGF3 C113 (UniProt Q3KNV8) | -0.205 | 0.0647 | -0.598 | -0.00705
PDXDC1 C456 (UniProt Q6P996) | -0.0163 | 0.039 | 0.141 | 0.263
PAN3 C259 (UniProt Q58A45) | 0.0403 | 0.328 | -0.0275 | 0.252
PAPOLA C677 | -0.462 | 0.0469 | -0.539 | -0.0284
PAPOLG C604 (UniProt Q9BWT3) | -0.157 | -0.125 | 0.144 | -0.0829
PEAK1 C791 (UniProt Q9H792) | -0.195 | -0.188 | -0.254 | -0.129
PANX1 C170 (UniProt Q96RD7) | -0.117 | -0.24 | 0.279 | -0.0421
PCMT1 C102 (UniProt P22061) | -0.000244 | -0.114 | 0.163 | -0.0828
OTULIN C215 (UniProt Q96BN8) | -0.523 | 0.329 | -0.206 | 0.3
PALS2 C432 | -0.237 | -0.0523 | -0.479 | -0.104
PARP2 C474 (UniProt Q9UGN5) | 0.187 | -0.116 | 0.264 | 0.0697

Target | log2 mean competition ratio ([1]; 50 µM) | log2 mean competition ratio ([1]; 200 µM) | log2 mean competition ratio ([2]; 50 µM) | log2 mean competition ratio ([2]; 200 µM)
PGM3 C200 | -0.235 | 0.141 | -0.21 | 0.176
PAPOLA C118 | -0.163 | -0.208 | -0.242 | -0.0915
PDLIM3 C297 | 0.306 | -0.246 | 0.891 | -0.13
PDCD11 C557 (UniProt Q14690) | -0.138 | -0.179 | -0.225 | -0.246
PARD3 C921 (UniProt Q8TEW0) | 0.18 | 0.18 | 0.378 | 0.149
PANK4 C513 (UniProt Q9NVE7) | 0.0119 | -0.0228 | -0.162 | -0.0754
PCID2 C25 (UniProt Q5JVF3) | -0.0392 | -0.0512 | -0.498 | 0.00864
PEX19 C226 (UniProt P40855) | 0.0625 | 0.0755 | 0.0905 | -0.0198
OVCA2 C41 (UniProt Q8WZ82) | -0.342 | 0.258 | -0.827 | -0.0551
PAK4 C276 (UniProt O96013) | -0.404 | 0.109 | -0.231 | -0.159
PARP1 C256 (UniProt P09874) | -0.00765 | -0.183 | 0.458 | 0.0115
PCF11 C1518 (UniProt O94913) | -0.0986 | 0.0284 | -0.38 | 0.0755
PDK3 C191 (UniProt Q15120) | 0.0103 | 0.0678 | -0.00892 | 0.0159
PDXDC1 C425 (UniProt Q6P996) | 0.266 | 0.366 | 0.174 | 0.332
PARK7 C53 (UniProt Q99497) | -0.181 | -0.459 | -0.506 | -1.23
PCM1 C896 (UniProt Q15154) | -0.288 | 0.0625 | 0.287 | 0.66
PGRMC1 C129 (UniProt O00264) | -0.033 | 0.174 | -0.513 | -0.13
PCIF1 C404 (UniProt Q9H4Z3) | 0.182 | -0.00099 | 0.246 | 0.0233
PCK2 C306 (UniProt Q16822) | 0.443 | 0.26 | 0.676 | 0.292
PGAM1 C153 (UniProt P18669) | -0.15 | 0.129 | -0.00951 | 0.0828

Reformatted in CSV form: part of the list above
Target,log2 mean competition ratio ([1]; 50 µM),log2 mean competition ratio ([1]; 200 µM),log2 mean competition ratio ([2]; 50 µM),log2 mean competition ratio ([2]; 200 µM)
PARG C711 (UniProt Q86W56),0.133,-0.352,0.0546,-0.48
PHACTR4 C328 (UniProt Q8IZ21),0.0349,-0.28,0.439,0.147
PCNT C2446 (UniProt O95613),-0.0342,-0.0914,0.148,0.0665

Going on with the list:

Target | log2 mean competition ratio ([1]; 50 µM) | log2 mean competition ratio ([1]; 200 µM) | log2 mean competition ratio ([2]; 50 µM) | log2 mean competition ratio ([2]; 200 µM)
P3H1 C483 (UniProt Q32P28) | -0.0841 | 0.151 | -0.167 | 0.275
PAK2 C390 (UniProt Q13177) | -0.143 | -0.103 | -0.0354 | -0.223
PCYT1A C5 (UniProt P49585) | -0.341 | -0.159 | -0.206 | 0.277
PDHA1 C261 (UniProt P08559) | 0.0663 | -0.164 | -0.332 | -0.0952
PDLIM5 C479 (UniProt Q96HC4) | -0.154 | -0.197 | 0.164 | -0.0837
PDCD11 C1754 (UniProt Q14690) | -0.124 | 0.192 | -0.673 | -0.048
PANK3 C308 (UniProt Q9H999) | -0.0144 | -0.132 | -0.07 | -0.0449
PARN C317 (UniProt O95453) | 0.208 | -0.19 | 0.33 | 0.0559
PDCD11 C241 (UniProt Q14690) | -0.024 | -0.139 | -0.287 | -0.133
PARD3 C323 (UniProt Q8TEW0) | -0.0309 | -0.314 | 0.0183 | -0.02
PAF1 C36 (UniProt Q8N7H5) | 0.037 | 0.0824 | 0.11 | 0.211
PELP1 C536 (UniProt Q8IZL8) | 0.28 | -0.258 | -0.239 | -0.284
PDPK1;PDPK2P C181;(C154) | 0.00173 | 0.0727 | 0.269 | 0.0379
PAXBP1 C831 (UniProt Q9Y5B6) | 0.103 | -0.129 | -0.187 | -0.157
PEPD C482 (UniProt P12955) | -0.0538 | 0.248 | -0.332 | 0.753
PAXIP1 C933 (UniProt Q6ZW49) | -0.38 | -0.192 | 0.0135 | -0.00589
PDIA5 C465 (UniProt Q14554) | -0.594 | -0.705 | -0.518 | -0.817
PALB2 C630 (UniProt Q86YC2) | 0.173 | 0.0452 | -0.0685 | 0.291
